Results reported in PubChem BioAssay AID504444 (National Center for Advancing Translational Sciences (NCATS), 2011).
In all, about 360,000 compounds went through this assay and about 7,500 (2.1%) were called active. This list was built around the results that the source calls inconclusive (neither active nor inactive); the mix of calls is not that of the screen. Calls follow the shape of the dose curve; as a rule, active = well fitted inhibition curve with a large enough effect; inconclusive = small, poorly fitted or top-dose-only effect, or effect the other way; inactive = flat fitted curve, though single readings scatter. A potency beside an inconclusive call is a rough fit, not a confirmed value.
Potency is read from the fitted curve at half-maximal effect.

Assay: Nrf2 qHTS screen for inhibitors; also: nearly all actives have a fitted effect of over 60% in size
Conditions: A549 ARE-Fluc reporter, luciferase luminescence, 18-24 h; series mostly up to 46 µM
Method in brief: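 Two sequential reads on A549 ARE_Fluc cells exposed to compound for 18-24 h: a CellTiter-Fluor fluorescence read for viability, then a luciferase luminescence read for Nrf2/ARE activity.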
In the case of `Cc1ccccc1Cn1c2ccccc2c2cnn(CC(=O)NCCc3ccccc3)c(=O)c21`, the Potency is reported as inconclusive: 29.1 µM [activator, single point].
With `ClC(Cl)c1nnc(-c2ccccc2)c(-c2c[nH]c3ccccc23)n1` the Potency was active: 10.3 µM.
With `O=C(N/N=C/c1cc(Br)c(O)c(Br)c1O)c1ccc2c(c1)OCCO2` the Potency was inconclusive: 23.1 µM [falling, single point].
With `CC(NC(=O)NC(=O)c1ccc(Cl)cc1)c1ccccc1` (configuration not stated) the Potency was inconclusive: 4.11 µM [falling, full curve, poor fit].
In the case of `CC(CNC(=O)CCc1nnc(CCC2CCCCC2)o1)c1ccccc1` (configuration not stated), the Potency is reported as inconclusive: 20.6 µM [activator, single point].
For `O=C(NC1CCCc2ccccc21)c1ccccc1` (configuration not stated), the Potency was inconclusive: 11.6 µM [falling, partial curve, poor fit].
For `C=CCN(Cc1ccc(OC)c(OC)c1)C(=O)c1cc2cc(F)ccc2[nH]1`, the Potency was active: 23.1 µM.
With `Cc1ccc(-n2ncc(C(=O)NCCc3c[nH]c4ccccc34)c2C2CCN(C(=O)OC(C)(C)C)CC2)cc1C` the Potency was inconclusive: 16.4 µM [falling, single point].
In the case of `CCN(Cc1nc2cc(Cl)ccc2c(=O)[nH]1)C(=O)CN1C(=O)NC2(CCCCC2C)C1=O` (configuration not stated), the Potency is reported as inconclusive: 0.517 µM [activator, full curve, poor fit].
With `O=C(CN1CCCN(Cc2ccccc2Cl)S1(=O)=O)NCc1ccccc1` the Potency was “inactive”.
With `Cc1ccc(C(=O)N/C(=C\c2ccc(-c3ccc(Br)cc3)o2)C(=O)NCCCN(C)C)cc1` the Potency was inconclusive: 20.6 µM [falling, single point].
In the case of `O=C(Nc1cccc(Cl)c1)c1ccc(OC(=S)N2CCOCC2)cc1`, the Potency is reported as inconclusive: 29.1 µM [falling, single point].
For `N#C/C=C1\n2c(nc3ccccc32)OC12CCCCC2`, the Potency was inconclusive: 20.6 µM [falling, single point].
For `CCc1nc(SCC(=O)Nc2nc3c(s2)CCCC3)c2ccccc2n1`, the Potency was inconclusive: 20.6 µM [falling, single point].
With `O=C(N1CCOCC1)N1CCOCC1` the Potency was inconclusive: 6.51 µM [activator, single point].
For `O=c1cc(CO)oc(C(Nc2ccccn2)c2ccc(F)cc2)c1O` (configuration not stated), the Potency was “inactive”.
In the case of `CC(=O)/C=C/n1c(=S)oc2ccccc21`, the Potency is reported as inconclusive: 29.1 µM [falling, single point].
With `CCc1ccc(C(=O)C[n+]2cccc3cc(OC)ccc32)cc1` the Potency was inconclusive: 14.6 µM [falling, single point].
In the case of `CC(C)N(Cc1ccccc1)C(=O)Cn1ncc2c([nH]c3ccccc32)c1=O`, the Potency is reported as “inactive”.
In the case of `O=C(Nc1ccc(C(=O)N2CCCCC2)cc1)c1ccc([N+](=O)[O-])cc1`, the Potency is reported as inconclusive: 29.1 µM [falling, partial curve, poor fit].
With `NC(=O)COc1ccc2oc(=O)cc(-c3cc4ccccc4o3)c2c1` the Potency was inconclusive: 11.6 µM [falling, partial curve].
In the case of `Cc1cccc(N2CCN(C(=S)c3ccc4c(c3)OCO4)CC2)c1`, the Potency is reported as inconclusive: 14.6 µM [activator, partial curve, poor fit].
With `O=C(Cn1ccc2cc(S(=O)(=O)N3CCCCC3)ccc21)NCc1cccc(Cl)c1` the Potency was inconclusive: 23.1 µM [falling, single point].
For `COc1cccc(-n2c(SC)nnc2-c2c[nH]c3ccccc23)c1`, the Potency was inconclusive: 18.4 µM [falling, single point].
In the case of `COc1ccc(NC(=O)CSc2ccccn2)c([N+](=O)[O-])c1`, the Potency is reported as inconclusive: 11.6 µM [activator, partial curve, poor fit].
For `Cc1cc(C)nc(N(C#N)Cc2ccc(Cl)cc2)n1`, the Potency was inconclusive: 8.2 µM [falling, partial curve, poor fit].
In the case of `CCOC(=O)c1c(C)[nH]c(C(=O)CSc2nccc(C)n2)c1C`, the Potency is reported as inconclusive: 4.11 µM [activator, partial curve].
For `CCOC(=O)C(C)NC(=O)C1CCN(c2ncnc3c2nc2n3CCCCC2)CC1` (configuration not stated), the Potency was inconclusive: 29.1 µM [activator, single point].
With `COc1cc(NC(=O)CSc2nnc(-c3ccncc3)o2)cc(OC)c1OC` the Potency was “inactive”.
With `Cc1ccc(OCCCSc2ncccn2)cc1C` the Potency was inconclusive: 16.4 µM [activator, partial curve].
For `O=C(COC(=O)C1CC2C=CC1C2)Nc1ccc2c(c1)OC(F)(F)O2` (configuration not stated), the Potency was inconclusive: 32.6 µM [falling, single point].
In the case of `O=C(NCCc1ccccn1)c1ccc(OC2CCN(CCc3ccccc3)CC2)cc1`, the Potency is reported as inconclusive: 20.6 µM [activator, partial curve].
With `CC1(C)CC(=O)C(=Cc2cn(-c3ccccc3)nc2-c2ccccc2)C(=O)C1` the Potency was “inactive”.
In the case of `O=C(NCCc1ccc(Cl)cc1)C1CCCN(S(=O)(=O)c2cnc[nH]2)C1` (configuration not stated), the Potency is reported as inconclusive: 4.11 µM [falling, partial curve, poor fit].
For `Cc1ccc(-c2nnn(CC(=O)Nc3ccccc3N3CCOCC3)n2)cc1`, the Potency was inconclusive: 29.1 µM [falling, single point].
In the case of `COc1ccc(C(=O)O/N=C(\N)c2ccccn2)cc1[N+](=O)[O-]`, the Potency is reported as inconclusive: 1.84 µM [activator, full curve].
In the case of `COc1ccc(S(=O)(=O)N2CCN(Cc3cc(OC)c(OC)c(OC)c3)CC2)cc1`, the Potency is reported as “inactive”.
For `O=C(c1ccc(Cl)c(S(=O)(=O)N2CCOCC2)c1)N(Cc1nnc(-c2ccccc2Cl)o1)C1CC1`, the Potency was “inactive”.
For `Cc1c(/C=N/Nc2ccc(C(=O)O)cc2)c2ccccc2n1C`, the Potency was inconclusive: 16.4 µM [activator, partial curve].
In the case of `CC1(C)CC(=O)C(C=Nc2ccccc2C(=O)O)=C(O)C1`, the Potency is reported as “inactive”.
In the case of `CC(C)c1cccc(C(C)C)c1NC(=O)CCl`, the Potency is reported as inconclusive: 16.4 µM [falling, partial curve, poor fit].
In the case of `Cc1ccc(-n2nc(C)c(NC(=O)CCl)c2C)cc1C`, the Potency is reported as inconclusive: 14.6 µM [falling, partial curve].
